Out of some 340,000 compounds screened, about 6,200 (1.8%) were called active. The inconclusive results got no clear call from the source; some entries with a clear call stand among them for comparison. The call rests on the fitted dose curve; in most records, active means well fitted activation curve with a large enough effect; inconclusive means small, poorly fitted or top-dose-only effect; inactive means no such curve, though single readings can be large or run the other way. Where the call is inconclusive, the potency comes from a doubtful curve fit.
Experiment: A quantitative high throughput screen for small molecules that induce DNA re-replication in SW480 colon adenocarcinoma cells. Further: nearly all actives have a fitted effect of over 55% in size. On re-replication activation: % of control where 0% means no effect.
Details: Hoechst DNA content imaging, 48 h; re-replication activation: at 46.1 µM (top of the series) unless noted
How it was run: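 Cells (250 per well) received 23 nL compound or DMSO by pin tool and were kept 48 hr at 37 C, 5% CO2. Nuclei were then stained with Hoechst for 40 min and scanned for DNA content.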
Potency means the concentration at half of the fitted maximal effect.

Compound | Potency | re-replication activation
Cn1c(SCc2ccccc2)nc(N)c(N=O)c1=O | inconclusive: 2.91 µM [activator, full curve, poor fit] | –
O=C(CCl)Nc1cn(-c2ccccc2)nc1-c1ccc(F)cc1 | inconclusive: 29.1 µM [activator, single point] | –
COc1ccc(N2CCN(S(=O)(=O)c3cnc[nH]3)CC2)cc1 | inconclusive: 13 µM [activator, partial curve, poor fit] | –
CCN(c1ccccc1C)S(=O)(=O)c1nnc(NC(=O)c2ccco2)s1 | inconclusive: 29.1 µM [activator, single point] | –
CCOC(=O)c1ccc2c(c1)nc(SCC(=O)c1ccco1)n2CC | – | inactive: -4.55%
COCCCNCCCCOc1ccccc1-c1ccccc1 | inconclusive: 29.1 µM [activator, single point] | –
c1ccc(NC2=NCCN2CCCC2CCCCC2)cc1 | active: 0.259 µM | –
O=C(c1ccc(Cl)c(S(=O)(=O)N2CCCC2)c1)N1CCN(Cc2ccccc2)CC1 | inconclusive: 29.1 µM [activator, single point] | –
O=S(=O)(CCN1CCN(c2ccccc2O)CC1)c1cc(Cl)ccc1Cl | inconclusive: 16.4 µM [activator, single point] | –
CCC(C)(C)n1nnnc1C(c1ccc(C)cc1)N1CCN(Cc2ccc3c(c2)OCO3)CC1 (stereo not given) | inconclusive: 29.1 µM [activator, single point] | –
Cc1ccc(NCc2nnc(SCC(=O)O)n2Cc2ccccc2)cc1Cl | inconclusive: 20.6 µM [activator, single point] | –
CCc1ccc(OCC(=O)NNC(=S)NC(=O)C2CCCCC2)c(Br)c1 | – | inactive: -11.7%
CC(=O)Nc1cc(C(=O)OCC(=O)c2ccc(Cl)cc2Cl)ccc1C | – | inactive: -5.25%
O=C(CCS(=O)(=O)c1ccccc1)Nc1nc(-c2ccc(F)cc2)cs1 | inconclusive: 23.1 µM [activator, single point] | –
COCCNC(=O)c1cccc(OC2CCN(Cc3ccccc3C)CC2)c1 | inconclusive: 29.1 µM [activator, single point] | –
Cc1nc2ccc(NC(=O)Cc3ccc(Br)cc3)cc2s1 | inconclusive: 29.1 µM [activator, single point] | –
CCn1c(SCC(O)c2ccccc2)nnc1-c1ccccc1 (stereo not given) | – | inactive: 0.104%
N#C/C(=C(/O)CSc1nnc(Cc2cccs2)n1C1CCCCC1)c1nc2ccccc2[nH]1 | active: 18.4 µM | –
Cc1cn(CC(C)C)c(=O)n(-c2ccccc2)c1=O | – | inactive: -1.37%
COc1ccc(C(=O)CC(SCC(NC(C)=O)C(=O)O)c2ccc(Cl)cc2)cc1OC (stereo not given) | inconclusive: 5.8 µM [activator, full curve, poor fit] | –
C/C(=N\Nc1nc2ccccc2s1)c1cccs1 | inconclusive: 23.1 µM [activator, single point] | –
COc1ccc(S(=O)(=O)Nc2ccc3ccccc3c2)cc1C | inconclusive: 29.1 µM [activator, single point] | –
COCC(=O)N1CCC(Oc2ccc(C(=O)N3CCCCCCC3)cc2)CC1 | – | inactive: -2.95%
C/C(=N/NC(=O)c1ccncc1)c1cc2ccc(O)cc2oc1=O | – | inactive: 61.5%

Compound | Potency | re-replication activation
CC1=CCC2C(=O)N(Cc3ccccc3)C(=O)C2C1 (stereo not given) | – | inactive: -2.47% [at 9.22 µM]
Cn1c(CN2CCCC2)nc2cc(NC(=O)c3ccc(Cl)cc3)ccc21 | – | inactive: -1.74%
CC(NC(=O)CN1CCN(c2cccc(Cl)c2)CC1)c1ccccc1 (stereo not given) | inconclusive: 6.51 µM [activator, single point] | –
O=[N+]([O-])c1cccc(-n2nnnc2CNCc2ccccc2)c1 | inconclusive: 29.1 µM [activator, single point] | –
COc1ccc(C(C[N+](=O)[O-])c2c(C)cc3ccccn23)cc1 (stereo not given) | inconclusive: 23.1 µM [activator, single point] | –
O=C1CNC(=S)N1Cc1ccccc1Cl | inconclusive: 29.1 µM [activator, single point] | –
Cn1c(-c2ccc(F)cc2)cnc1NCc1cccc([N+](=O)[O-])c1 | – | inactive: -12%
Cc1ccn2c(NC3CCCC3)c(-c3cccs3)nc2c1 | inconclusive: 18.4 µM [activator, single point] | –
CN(O)C(=S)c1ccccc1 | inconclusive: 0.146 µM [activator, full curve, poor fit] | –
O=C(NCc1ccco1)c1cc(S(=O)(=O)N2CCCC2)ccc1Cl | inconclusive: 14.6 µM [activator, single point] | –
O=C(Oc1cccc([N+](=O)[O-])c1)C1CCN(C(=O)c2ccc(F)cc2)CC1 | – | inactive: -2.31%
COc1ccc(OC)c(S(=O)(=O)N2CCC(C(=O)N3CCc4ccccc4C3)CC2)c1 | – | inactive: -2.37%
Cc1nc(NC(C)c2ccccc2)c2oc3ccccc3c2n1 (stereo not given) | inconclusive: 3.26 µM [activator, partial curve, poor fit] | –
COc1ccc(C(CNC(=O)C(C)(C)Oc2ccc(Cl)cc2)N2CCOCC2)cc1 (stereo not given) | – | inactive: 0.22%
Cc1cc(C)cc(NC(=O)CSc2nnc(CNC(=O)c3ccco3)n2C)c1 | – | inactive: -5.95%
CCOC(=O)c1ccc(NCc2ccc3c(c2)OCO3)cc1 | inconclusive: 29.1 µM [activator, single point] | –
COC(=O)[C@@]1(Cc2ccccc2)[C@H]2C(=O)N(C)C(=O)[C@H]2[C@H]2CN=C(SC)N21 | inconclusive: 29.1 µM [activator, single point] | –
Cc1nc(SCC(=O)NCCc2ccc(Cl)cc2)nc(C)c1C | inconclusive: 32.6 µM [activator, partial curve, poor fit] | –
COc1ccc(-c2nn(-c3ccccc3)cc2C(=O)NC(=S)N2CCOCC2)cc1OC | inconclusive: 29.1 µM [activator, single point] | –
CC(C)OC(=O)CC(=O)CSc1nc(-c2ccc(F)cc2)cc(-c2ccccc2)c1C#N | inconclusive: 20.6 µM [activator, single point] | –
CCCN1CCc2c(sc3nc(SC)n(-c4ccccc4)c(=O)c23)C1 | inconclusive: 16.4 µM [activator, single point] | –
OC1(C#Cc2c(-c3ccsc3)oc3ccc(N4CCOCC4)cc23)CCCCC1 | inconclusive: 14.6 µM [activator, partial curve, poor fit] | –
CCCCN(CC)CCNC(=O)c1cc2c(=O)[nH]c3ccccc3c2s1 | inconclusive: 29.1 µM [activator, single point] | –
O=C(CCl)N1CCN(S(=O)(=O)c2ccc3c(c2)CCC3)CC1 | inconclusive: 18.4 µM [activator, single point] | –

Compound | Potency | re-replication activation
Cc1ccc(C(=O)OCC(=O)NNC(=O)c2cccs2)c(O)c1 | active: 18.4 µM | –
CC(C)(C)C(=O)Nc1cccc(-c2nc3ccccc3c(=O)o2)c1 | – | inactive: -18.3%
CC(C)(C)c1ccc(C(=O)Nc2cccc3c(=O)[nH][nH]c(=O)c23)cc1 | inconclusive: 32.6 µM [activator, partial curve, poor fit] | –
Cc1ccc(C2CC(C(F)(F)F)n3ncc(C(=O)NCc4ccco4)c3N2)cc1 (stereo not given) | – | inactive: -2.09%
COCc1c(C(=O)N2CCN(CCOc3ccccc3)CC2)oc2ccccc12 | inconclusive: 23.1 µM [activator, single point] | –
CN(CCOc1ccccc1)c1ccc(S(=O)(=O)N2CCCCC2)cn1 | – | inactive: -1.39%
Cc1cc(C)nc(N/N=C/c2ccc(N3CCOCC3)cc2)n1 | inconclusive: 6.51 µM [activator, single point] | –
COc1ccc(C(=O)NCc2nnc(SCC(=O)c3ccccc3)o2)cc1 | inconclusive: 0.58 µM [activator, partial curve, poor fit] | –
CCCC(=O)N(c1ccc(OCC)cc1)C1C=CS(=O)(=O)C1 (stereo not given) | – | inactive: -3.93%
COc1cc(/C=C(\C#N)C(=O)NC(C)C)ccc1OCc1ccc(C(=O)O)cc1 | inconclusive: 20.6 µM [activator, single point] | –
CCCn1cc(NC(=O)c2cc(-c3ccccc3)on2)cn1 | inconclusive: 18.4 µM [activator, single point] | –
CCOC(=O)/C(=N\Nc1ccc(C(C)=O)cc1)c1csc(Nc2ccccc2)n1 | inconclusive: 3.26 µM [activator, full curve, poor fit] | –
COc1ccc(-c2c(-c3ccc(OCC(=O)NN)cc3O)n[nH]c2C(F)(F)F)cc1 | inconclusive: 4.11 µM [activator, full curve, poor fit] | –
CCN(CC)CCn1c2c(c(SCC(=O)Nc3cc(C)cc(C)c3)nc1=O)CCC2 | inconclusive: 2.91 µM [activator, partial curve, poor fit] | –
C/C(=C\C=C\c1ccccc1)C(=O)c1c(C)cc(C)[nH]c1=O | – | inactive: -4.72%
Cc1cccc(C)c1NC(=S)N(CCN1CCCCCC1)Cc1ccco1 | – | inactive: -0.744%
C[N+]1(C)CCC(=C2c3ccccc3CC(=O)c3sccc32)CC1 | inconclusive: 29.1 µM [activator, single point] | –
O=Cc1c(-c2ccc(Cl)cc2)oc2ccc(O)cc12 | – | inactive: 29.1%
O=C(Cc1cccs1)N1CCC(c2nc3c(nnn3Cc3ccccc3Cl)c(=O)[nH]2)CC1 | inconclusive: 25.9 µM [activator, single point] | –
Cc1nn(-c2ccccc2)c(C)c1NC(=O)COC(=O)C1CC(=O)N(CCc2ccccc2)C1 (stereo not given) | – | inactive: 1.2%
O=S(=O)(Nc1ccc2c(c1)OCO2)c1ccc(Br)s1 | inconclusive: 20.6 µM [activator, single point] | –
COc1cccc(/C=N/NC(=O)c2ccc(-c3ccccc3)cc2)c1O | inconclusive: 5.17 µM [activator, full curve, poor fit] | –

Individual results from above.
Potency, COc1cccc(/C=N/NC(=O)c2ccc(-c3ccccc3)cc2)c1O reads inconclusive: 5.17 µM [activator, full curve, poor fit]
re-replication activation, O=Cc1c(-c2ccc(Cl)cc2)oc2ccc(O)cc12 reads inactive: 29.1%

Source: PubChem BioAssay AID624297 (National Center for Advancing Translational Sciences (NCATS), 2012)
